Results taken from PubChem BioAssay AID1487 (National Center for Advancing Translational Sciences (NCATS), 2009).
This is one part of the list. These are further read-outs of the screen, such as a control signal, another cell line or another target. No call is given for them. Compounds called inactive in the main read-out are mostly missing here. The note in brackets gives the kind of curve behind each potency; many fits are weak.

Experiment: qHTS Assay for Modulators of Lamin A Splicing
Settings: HeLa LMNA splicing GFP/RFP minigene ratio, 48 h
In short: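 S3 HeLa stable clones carrying a lamin A-EGFP splicing minigene plus DsRed2 were seeded at 600 cells/well in Opti-MEM with 2% FBS, pin-dosed and incubated 48 h at 37°C. Acumen cytometry (488 nm) gave the GFP/RFP total-intensity ratio.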

[1] = measured here: RFP viability control channel
[2] = measured here: GFP splicing reporter channel

SMILES | AC50 [1] | AC50 [2]
COc1ccc(N(Cc2cccs2)C(=O)COc2cc(C)c(Cl)c(C)c2)cc1 | 12.6 µM [rising, partial curve] | –
CCCN(c1ccc(C(C)C)cc1)S(=O)(=O)c1c(C)[nH]c(=O)[nH]c1=O | – | 14.1 µM [rising, single point]
CCOC(=O)/C(=N\Nc1cc(Cl)ccc1Cl)N1CCN(CC)CC1 | 11.2 µM [falling, single point] | 15.8 µM [falling, partial curve]
COC(=O)[C@@H]1CC[C@H](C)[C@@H](c2ccc(C)cc2)N1C(=O)c1ccc(/C=N/OC[C@@H](O)[C@H]2O[C@@H]3OC(C)(C)O[C@@H]3[C@H]2O)cc1 | 10 µM [rising, partial curve, poor fit] | 20 µM [rising, single point]
Cc1cc(N2CCN(C(=O)c3ccco3)CC2)n2nc(-c3cccc(Cl)c3)cc2n1 | 12.6 µM [rising, partial curve] | 11.2 µM [rising, partial curve]
Cc1ccc(C2=NN(C(=O)CSc3nc(N)cc(N)n3)C(c3ccco3)C2)cc1 (stereo not given) | 35.5 µM [rising, single point] | 35.5 µM [rising, single point]
COCc1cc(CN2CCN(Cc3ccsc3)C(CCO)C2)ccc1OC (stereo not given) | – | 0.0141 µM [rising, full curve, poor fit]
Cc1ccccc1C(=O)NNC(=S)Nc1cccc(C(F)(F)F)c1 | 1.78 µM [rising, partial curve] | 3.98 µM [rising, full curve, poor fit]
COc1ccccc1Sc1nc(-c2ccccn2)ncc1OC | 2.82 µM [falling, full curve, poor fit] | 6.31 µM [falling, full curve]
O=C(NCc1nnc(SCc2ccc(C(F)(F)F)cc2)n1-c1ccccc1)C12CC3CC(CC(C3)C1)C2 | 28.2 µM [falling, single point] | 25.1 µM [falling, single point]
CC1=NN(C(=O)c2ccc(Cn3cc(Br)c([N+](=O)[O-])n3)o2)C(O)(C(F)(F)F)C1 (stereo not given) | – | 20 µM [rising, single point]
O=C(CSc1ccc(Cl)cc1)Nc1ccccc1N1CCN(C(=O)c2ccc(Cl)cc2)CC1 | 14.1 µM [rising, partial curve] | 20 µM [rising, partial curve, poor fit]
O/N=C/c1ccccc1OCc1ccccc1F | 35.5 µM [rising, single point] | 20 µM [rising, partial curve]
Oc1ccc(Br)cc1C=Nc1ccc(Cl)cc1 | 2.82 µM [falling, single point] | –
COc1ccc(N(C)C(=O)Cc2c(C(=O)O)[nH]c3ccccc23)cc1 | 10 µM [rising, single point] | 20 µM [rising, partial curve, poor fit]
COc1ccc(OC)c(NC(=O)Cn2cnc3c(oc4ccccc43)c2=O)c1 | – | 35.5 µM [falling, single point]
CC(=O)Nc1cccc(OCC(O)Cn2c(C)nc3ccccc32)c1 (stereo not given) | 35.5 µM [rising, single point] | –

SMILES | AC50 [1] | AC50 [2]
O=C(c1ccc(Br)cc1)c1cc([N+](=O)[O-])ccc1N1CCCCC1 | 0.891 µM [falling, full curve] | 0.891 µM [falling, full curve]
Cc1ccc(CNC(=O)Cn2ccn(-c3ccc(C)c(C)c3)c(=O)c2=O)cc1 | 35.5 µM [falling, single point] | 3.16 µM [falling, partial curve, poor fit]
C1COC(NC(C2CC2)C2CC2)=N1 | – | 35.5 µM [falling, single point]
COc1ccc(-c2csc(NC(=O)C3CCCO3)n2)cc1 (stereo not given) | 6.31 µM [rising, full curve] | 6.31 µM [rising, full curve]
O=C(Cc1cccc2ccccc12)N/N=C/c1ccc(OC(=O)/C=C/c2ccco2)cc1 | 20 µM [rising, single point] | –
CCn1nc(C)c(/C=C2\CCCC3=C2OC(N)=C(C#N)C3c2c(C)nn(CC)c2C)c1C (stereo not given) | 3.16 µM [rising, full curve] | –
COc1ccc(CCn2c(N)c(C(=O)NCc3ccco3)c3nc4ccccc4nc32)cc1 | 35.5 µM [rising, single point] | –
O=C(NCc1ccccc1)c1nc(-c2cccs2)no1 | 5.01 µM [rising, single point] | 3.98 µM [rising, partial curve]
CCc1ccc(S(=O)(=O)Nc2ccc(-c3ccc(N4CCCCCC4)nn3)cc2)cc1 | 0.0398 µM [falling, partial curve, poor fit] | 0.0501 µM [falling, full curve, poor fit]
Cn1c(=O)[nH]c2ncn(C)c2c1=O | 0.00447 µM [falling, full curve, poor fit] | –
Cc1ccc(-c2csc(NC(=O)C3CCN(S(=O)(=O)c4cccs4)CC3)n2)cc1 | 0.708 µM [rising, full curve] | –
Clc1ccc2c(N/N=C/c3ccc(Br)cc3)ccnc2c1 | 31.6 µM [rising, single point] | 14.1 µM [rising, single point]
CCn1ncc(C2=NOC(C(=O)NCc3ccccc3)C2)c1C (stereo not given) | 14.1 µM [rising, partial curve] | –
COc1ccccc1OCCNS(=O)(=O)c1ccc2oc3ccccc3c2c1 | 35.5 µM [rising, single point] | –
CCCc1nc2sc3c(SCC(=O)NCc4ccco4)ncnc3c2c2c1CCC2 | 20 µM [rising, single point] | –
CCC1CCCCN1CCCNC(=O)CN1C(=O)CSc2ccc(S(=O)(=O)N3CCC(C)CC3)cc21 (stereo not given) | 0.0282 µM [rising, full curve, poor fit] | –
COc1cccc(NC(=O)c2ccncc2)c1 | – | 12.6 µM [rising, partial curve]

As entered above.
In AC50 [1], CCn1ncc(C2=NOC(C(=O)NCc3ccccc3)C2)c1C (stereo not given) reads 14.1 µM [rising, partial curve]
In AC50 [1], Cn1c(=O)[nH]c2ncn(C)c2c1=O reads 0.00447 µM [falling, full curve, poor fit]
